PubChem BioAssay AID652259 – Drosophila RNAi Screening Center | 2013

- Aim: 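Genome-wide hunt for genes that control Wingless pathway activity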 (primary screen)
- Cell system: Drosophila clone 8 imaginal disc epithelial cells
- Reagent: long dsRNA against Drosophila genes
- Treatment: pathway stimulated by co-transfected Wingless expression plasmid
- Read-out: 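Firefly luciferase from a tcf-site Wingless reporter, measured alongside co-transfected Renilla luciferase that tracks transfection; pathway stimulated by a Wingless plasmid; the firefly-to-Renilla ratio is not deposited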
- Scale: firefly reporter light: higher = more Wg reporter light, before normalisation; Renilla control light: higher = more transfected or surviving cells
- Hit rule: 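a knock-down is a candidate when at least two out of four statistical tests show it departing from its plate mean; one test alone signals a weak candidate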
- Calls: active = candidate regulator (raises or lowers reporter); inactive = not a candidate
The screen tested about 22,000 reagents; this is an unselected part of those that have a named target and a result. Of all reagents, 233 (1.1%) got an active call. 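Light values are raw, unnormalised plate reads; the ratio scores behind the reporter calls were not deposited.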 Unmarked entries are inactive. Reagents against one gene are numbered here. Names joined by + are all predicted targets of the reagent. The record does not give: the amount of reagent, the time to read-out, the dose of the treatment.

The first 5 records as a preview:
| reporter change call, replicate 1 | firefly reporter light, replicate 1 | firefly reporter light, replicate 2 | Renilla control light, replicate 1 | Renilla control light, replicate 2 | gene | dsRNA no. |
| --- | --- | --- | --- | --- | --- | --- |
| Wg reporter activity raised (active) | 7026 | – | 4579 | – | bab1 | 1 |
| – | 6409 | – | 3527 | – | bab1 | 2 |
| – | 5.60e5 | 5.68e5 | 1.94e5 | 2.50e5 | bab1 | 3 |
| – | 11675 | – | 4085 | – | CG15073 | 1 |
| – | 11291 | – | 1962 | – | TyrRII | 1 |

Main list, from the start:
| reporter change call, replicate 1 | firefly reporter light, replicate 1 | firefly reporter light, replicate 2 | Renilla control light, replicate 1 | Renilla control light, replicate 2 | gene | dsRNA no. |
| --- | --- | --- | --- | --- | --- | --- |
| Wg reporter activity raised (active) | 7026 | – | 4579 | – | bab1 | 1 |
| – | 6409 | – | 3527 | – | bab1 | 2 |
| – | 5.60e5 | 5.68e5 | 1.94e5 | 2.50e5 | bab1 | 3 |
| – | 11675 | – | 4085 | – | CG15073 | 1 |
| – | 11291 | – | 1962 | – | TyrRII | 1 |
| – | 22401 | – | 10248 | – | CG7326 | 1 |
| – | 3926 | – | 1451 | – | CG42580 | 1 |
| – | 3516 | 4432 | 1145 | 1257 | ND-42 | 1 |
| – | 1858 | 3776 | 694 | 1200 | CG7080 | 1 |
| – | 10022 | – | 2488 | – | fd59A | 1 |
| – | 8052 | – | 3728 | – | CG2955 | 1 |
| – | 25624 | – | 9392 | – | btd | 1 |
| – | 2472 | 6624 | 496 | 1537 | Nup93-1 | 1 |
| – | 5978 | – | 2017 | – | Fem-1 | 1 |
| – | 2642 | 8264 | 1210 | 2340 | CG9029 | 1 |
| – | 2464 | 6557 | 1093 | 2160 | Mon1 | 1 |
| – | 18745 | – | 4884 | – | CR1075 | 1 |
| – | 3381 | – | 1315 | – | asRNA:CR33945 | 1 |
| – | 4518 | – | 2020 | – | CG31077 | 1 |
| – | 21505 | – | 18112 | – | Scgdelta | 1 |
| – | 13846 | – | 2489 | – | Cyp28a5 | 1 |
| – | 2011 | 6913 | 865 | 2250 | CG6470 | 1 |
| – | 12856 | – | 4566 | – | CG10383 | 1 |
| – | 11284 | – | 6605 | – | Gapvd1 | 1 |
| – | 8744 | – | 3096 | – | CG14506 | 1 |
| – | 3384 | 6013 | 737 | 1090 | Taf3 | 1 |
| – | 8704 | – | 4800 | – | CG14151 | 1 |
| – | 1824 | 5996 | 908 | 2131 | Apc2 | 1 |
| – | 19128 | – | 5271 | – | Tina-1 | 1 |
| – | 3820 | – | 1884 | – | Kcmf1 | 1 |
| – | 5528 | – | 2054 | – | put | 1 |
| – | 11253 | – | 2769 | – | Arc1 | 1 |
| – | 2984 | 7732 | 664 | 2536 | Mat1 | 1 |
| – | 3445 | – | 1431 | – | CG15040 | 1 |
| – | 3.72e5 | 4.53e5 | 1.03e5 | 83683 | CG15040 | 2 |
| – | 9285 | – | 1642 | – | blow | 1 |
| – | 2752 | – | 1600 | – | Prps | 1 |
| – | 3173 | – | 2016 | – | Prps | 2 |
| – | 7186 | – | 3331 | – | Prps | 3 |
| – | 5.89e5 | 5.81e5 | 2.53e5 | 2.06e5 | CG33475 | 1 |
| – | 6598 | – | 2064 | – | pyd3 | 1 |
| – | 3.87e5 | 4.48e5 | 2.12e5 | 1.54e5 | pyd3 | 2 |
| – | 12939 | – | 4481 | – | TAF1C-like | 1 |
| – | 2300 | 5803 | 1047 | 2785 | LpR1 | 1 |
| – | 20704 | – | 19352 | – | LpR1 | 2 |
| – | 18052 | – | 14418 | – | LpR1 | 3 |
| – | 3104 | 6179 | 976 | 2762 | CG16888 | 1 |
| – | 1467 | 6618 | 1056 | 2848 | CG13312 | 1 |
| – | 5559 | – | 1657 | – | CG33337 | 1 |
| – | 4912 | – | 2387 | – | Cerk | 1 |
| – | 7633 | – | 2274 | – | Pop2 | 1 |
| – | 8128 | – | 3286 | – | CG7668 | 1 |
| – | 3318 | 10226 | 786 | 3714 | retn | 1 |
| – | 5680 | – | 1917 | – | Kpc2 | 1 |
| – | 5216 | – | 2369 | – | CG3505 | 1 |
| – | 6928 | – | 2923 | – | Ppn | 1 |
| – | 6131 | – | 2004 | – | CG9752 | 1 |
| – | 3952 | – | 1706 | – | Prosalpha7 | 1 |
| – | 7778 | – | 2839 | – | CG12483 | 1 |
| – | 2616 | – | 1033 | – | CG31516 | 1 |
| – | 15856 | – | 14512 | – | CG14551 | 1 |
| – | 5302 | – | 1960 | – | CG8414 | 1 |
| – | 17347 | – | 3992 | – | Tmtc4 | 1 |
| – | 5978 | – | 1876 | – | Swim | 1 |
| – | 2235 | 7030 | 825 | 1110 | Cap-D3 + tomb | 1 |
| – | 24898 | – | 9476 | – | CG15767 | 1 |
| – | 14832 | – | 4074 | – | CG3916 | 1 |
| – | 8068 | – | 3249 | – | TwdlN | 1 |
| – | 10128 | – | 4044 | – | Ptpa | 1 |
| – | 9333 | – | 4160 | – | CG5961 | 1 |
| – | 4374 | – | 1771 | – | CG7987 | 1 |
| – | 18213 | – | 5012 | – | Syt14 | 1 |
| – | 4916 | 11081 | 2209 | 2872 | r-l | 1 |
| – | 4.95e5 | 5.65e5 | 3.40e5 | 3.74e5 | r-l | 2 |
| – | 22620 | – | 10185 | – | CG15056 | 1 |
| – | 8444 | – | 3344 | – | Pex19 | 1 |
| – | 10565 | – | 4466 | – | Jon99Cii | 1 |
| – | 7.12e5 | 6.98e5 | 3.11e5 | 1.11e5 | Jon99Cii | 2 |
| – | 7120 | – | 3564 | – | Polr1B | 1 |
| – | 16343 | – | 11832 | – | pho | 1 |
| – | 7828 | – | 2690 | – | CG6216 | 1 |
| – | 7253 | 6966 | 1408 | 2328 | Non3 | 1 |
| – | 3248 | – | 486 | – | CG42789 | 1 |
| – | 13778 | – | 6499 | – | CG34163 | 1 |
| – | 1408 | 5754 | 1616 | 3184 | Membrin | 1 |
| – | 16021 | – | 3269 | – | bard | 1 |
| – | 2192 | 4562 | 1584 | 2372 | sphinx1 | 1 |
| – | 3941 | 10293 | 1571 | 3645 | CG4629 | 1 |
| – | 2717 | 6731 | 1088 | 2827 | Rab35 | 1 |
| – | 18635 | – | 8301 | – | Ptpmeg2 | 1 |
| – | 15402 | – | 6410 | – | Ptpmeg2 | 2 |
| – | 3699 | – | 1453 | – | CG32816 | 1 |
| – | 1617 | 4705 | 512 | 647 | dsf | 1 |
